In patent KR20150077891A:
Results are given in words; binding and its absence hold for the method and conditions named. Some binding calls cover weakened binding; strength is not graded here.

What was measured:
[1] = target: T1, WRS (tryptophanyl-tRNA synthetase), purified recombinant antigen / standard (human) (UniProt P23381); assay: sandwich ELISA, scFv coated at 100-400 ng/well as capture, rabbit polyclonal anti-WRS (4 ug/ml) as detection, OD450
T1 sequence (looked up): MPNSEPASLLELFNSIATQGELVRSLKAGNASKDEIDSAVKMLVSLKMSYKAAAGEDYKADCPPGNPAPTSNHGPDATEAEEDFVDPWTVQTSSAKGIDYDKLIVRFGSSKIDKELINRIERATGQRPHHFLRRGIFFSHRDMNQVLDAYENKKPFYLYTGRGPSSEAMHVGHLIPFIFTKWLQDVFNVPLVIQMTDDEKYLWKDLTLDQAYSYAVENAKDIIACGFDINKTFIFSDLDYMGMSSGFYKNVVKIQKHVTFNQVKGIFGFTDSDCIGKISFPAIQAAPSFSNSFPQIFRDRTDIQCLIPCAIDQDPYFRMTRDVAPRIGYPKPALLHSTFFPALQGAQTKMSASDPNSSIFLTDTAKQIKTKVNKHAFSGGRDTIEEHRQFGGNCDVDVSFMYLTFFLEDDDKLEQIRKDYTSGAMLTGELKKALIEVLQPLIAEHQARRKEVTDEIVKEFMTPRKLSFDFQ

[2] = target: T1, WRS (tryptophanyl-tRNA synthetase), purified recombinant antigen / standard (human); assay: sandwich ELISA, scFv coated as capture, rabbit polyclonal anti-WRS as detection
[3] = target: T1, WRS (tryptophanyl-tRNA synthetase), purified recombinant antigen / standard (human); assay: phage panning on immobilised WRS followed by clone screening
[4] = target: T1, WRS (tryptophanyl-tRNA synthetase), purified recombinant antigen / standard (human); assay: Luminex multiplex bead assay, WRS coupled to beads, anti-HA-biotin / SA-PE detection

Measured: binding

B1: anti-WRS scFv Biocon-W1 (scFv, not shown: small tags and cut ends)
scFv: EVQLLESGGGLVQPGGSLRLSCAASGLAFSDYYMSWVRLAPGKGLEWVSVISPGSGSKYYADSVRGRFTVSRDNSKNTLYLQMNSLRAEDTAVYYCARKNQAFDYWGQGTLVTVSSGGGGSGGGGSGGGGSQSVLTQPPSASGTPGQRVTISCTGSSSNIGSNYVTWYQQLPGTAPKLLIYANSQRPSGVPDRFSGSKSGTSASLAISGLRSEDEADYYCASWDASLSGYVFGGGTKLTVL
binds: [1] | [2] | [3] | [4]
